Source: PubChem BioAssay AID200 (DTP/NCI, 2004)
The list shows only some results of the screen, not a fair sample: it gathers tests that were run many times, whatever their T/C, doses with no T/C, and many T/C values between a quarter and a half above the control. Other doses and runs of a compound stand elsewhere. T/C is the treated group as % of the vehicle group. Some doses have a count of surviving animals in place of a T/C: the source holds a T/C of zero for them, seemingly a mark for toxic or unscored doses. Some doses without a T/C left all or most animals alive at the check, yet need not have been tolerated: the source hardly ever lists a survival T/C far under the control, and the zero likely stands for such cases as well. Counts of survivors are from the toxicity check (mostly the fifth day) where no day follows; animals may have died later. Schedule codes are those of the source, taken here to give the interval after Q, in days (D) or hours (H), and the number of doses after X. Some entries hold several experiments; the values are given in rising order. For survival time, the PubChem record calls one and a half times the control and up active, and a quarter to a half above the control has no call in these data; cut-offs in other NCI protocols can differ. Some T/C values carry the count of animals alive at the toxicity check (mostly the fifth day); where none is given, no animal had died by that day.

Test system: B6C3F1 mice, B16 melanoma ip, median survival T/C
Test: NCI In Vivo Anticancer Drug Screen. Data for tumor model B16 Melanoma (intraperitoneal) in B6C3F1 mice
Conditions: T/C endpoint: median survival time, higher T/C = longer survival
In short: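 Transplantable tumor in mice; treated vs vehicle control groups; survival or tumor size measured; value = T/C ratio.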

[1] = dose: 200.0 mg/kg/injection, schedule: Q01DX009 (ip), vehicle: saline with Tween-80
[2] = dose: 400.0 mg/kg/injection, schedule: Q01DX009 (ip), vehicle: saline with Tween-80
[3] = dose: 200.0 mg/kg/injection, schedule: Q01DX009 (ip), vehicle: saline
[4] = dose: 50.0 mg/kg/injection, schedule: Q01DX009 (ip), vehicle: saline with Tween-80
[5] = dose: 50.0 mg/kg/injection, schedule: Q01DX009 (ip), vehicle: Klucel (hydroxypropylcellulose) (HPC)
[6] = dose: 100.0 mg/kg/injection, schedule: Q01DX009 (ip), vehicle: Klucel (hydroxypropylcellulose) (HPC)
[7] = dose: 200.0 mg/kg/injection, schedule: Q01DX009 (ip), vehicle: Klucel (hydroxypropylcellulose) (HPC)
[8] = dose: 3.0 mg/kg/injection, schedule: Q01DX009 (ip), vehicle: Klucel (hydroxypropylcellulose) (HPC)
[9] = dose: 100.0 mg/kg/injection, schedule: Q01DX009 (ip), vehicle: saline
[10] = dose: 400.0 mg/kg/injection, schedule: Q01DX009 (ip), vehicle: saline
[11] = dose: 6.25 mg/kg/injection, schedule: Q01DX009 (ip), vehicle: saline
[12] = dose: 50.0 mg/kg/injection, schedule: Q01DX009 (ip), vehicle: saline
[13] = dose: 100.0 mg/kg/injection, schedule: Q01DX009 (ip), vehicle: saline with Tween-80

SMILES: COc1cccc2c1C(=O)c1c(O)c3c(c(O)c1C2=O)CC(O)(C(C)=O)CC3OC1CC(NC(=O)C(CCCCN)NC(=O)C2CCCN2)C(O)C(C)O1 (stereo not drawn)
- T/C (dose: 5.0 mg/kg/injection, schedule: Q01DX001 (ip), vehicle: water): 126 % of control
- T/C (dose: 10.0 mg/kg/injection, schedule: Q01DX001 (ip), vehicle: water): 142 % of control

SMILES: O=C(Nc1ccccc1C(=O)O)c1cc([N+](=O)[O-])cc([N+](=O)[O-])c1
- survivor count [1]: 6 of 10
- survivor count [2]: 7 of 10

SMILES: NC(CS)C(=O)O (stereo not drawn)
- T/C [3]: 146 % of control

SMILES: CN=C(N)NCCCCCCCCNC(N)=NC
- survivor count (dose: 25.0 mg/kg/injection, schedule: Q01DX009 (ip), vehicle: saline with Tween-80): 7 of 10
- survivor count [4]: 0 of 10

SMILES: O=c1cc(-c2ccccc2)[nH]c2c1CCCC2
- survivor count [2]: 7 of 10

SMILES: C=C1C(=O)C23[C@H](O)C1CC[C@H]2[C@]12COC3(O)[C@@H](O)[C@@H]1C(C)(C)CC[C@@H]2O
- survivor count (dose: 36.0 mg/kg/injection, schedule: Q01DX009 (ip), vehicle: Klucel (hydroxypropylcellulose) (HPC)): 10 of 10
- survivor count [4]: 1 of 10

SMILES: O=NN(CCCl)C(=O)Oc1cc(Cl)c(Cl)cc1Cl
- T/C (dose: 6.25 mg/kg/injection, schedule: Q01DX009 (ip), vehicle: Klucel (hydroxypropylcellulose) (HPC)): 127 and 142 % of control
- T/C (dose: 12.5 mg/kg/injection, schedule: Q01DX009 (ip), vehicle: Klucel (hydroxypropylcellulose) (HPC)): 128 [9 of 10 alive] and 138 % of control
- T/C (dose: 25.0 mg/kg/injection, schedule: Q01DX009 (ip), vehicle: Klucel (hydroxypropylcellulose) (HPC)): 141 % of control
- survivor count [5]: 10 of 10
- survivor count [6]: 0 of 8 and 8 of 10

SMILES: CCN(CC)c1ccc2cc(-c3nc4ccccc4n3C)c(=O)oc2c1
- T/C [5]: 127 and 134 % of control
- survivor count [6]: 2 of 10 and 9 of 10
- survivor count [7]: 0 of 10 and 2 of 10

SMILES: CCOc1ccc(-c2nc3ccc(-c4nc5ccc(N6CCN(C)CC6)cc5[nH]4)cc3[nH]2)cc1
- survivor count (dose: 25.0 mg/kg/injection, schedule: Q01DX009 (ip), vehicle: saline): 10 of 10

SMILES: Cc1cnc(/C=N\NC(N)=S)c2cccc(N)c12
- T/C (dose: 12.0 mg/kg/injection, schedule: Q01DX009 (ip), vehicle: saline with Tween-80): 128 % of control
- T/C (dose: 24.0 mg/kg/injection, schedule: Q01DX009 (ip), vehicle: saline with Tween-80): 127 % of control
- T/C (dose: 48.0 mg/kg/injection, schedule: Q01DX009 (ip), vehicle: saline with Tween-80): 132 % of control

SMILES: COC1/C=C\C=C(/C)C(=O)NC2=CC(=O)C=C(C2=O)C(OC)C(C)CC(OC)C(OC)C(C)/C=C(/C)C1OC(N)=O (stereo not drawn)
- T/C (dose: 0.75 mg/kg/injection, schedule: Q01DX009 (ip), vehicle: Klucel (hydroxypropylcellulose) (HPC)): 142 % of control
- T/C (dose: 1.5 mg/kg/injection, schedule: Q01DX009 (ip), vehicle: Klucel (hydroxypropylcellulose) (HPC)): 132 % of control [9 of 10 alive]
- T/C [8]: 147 % of control [9 of 10 alive]
- survivor count [8]: 8 of 10
- survivor count (dose: 6.0 mg/kg/injection, schedule: Q01DX009 (ip), vehicle: Klucel (hydroxypropylcellulose) (HPC)): 2 of 10
- survivor count (dose: 12.0 mg/kg/injection, schedule: Q01DX009 (ip), vehicle: Klucel (hydroxypropylcellulose) (HPC)): 0 of 10
- survivor count (dose: 24.0 mg/kg/injection, schedule: Q01DX009 (ip), vehicle: Klucel (hydroxypropylcellulose) (HPC)): 0 of 10

SMILES: CC1(C)CC2(C)OC2C2(C1)N=NC(=Nc1ccccc1)O2 (stereo not drawn)
- survivor count [1]: 3 of 10
- survivor count [2]: 0 of 10

SMILES: O=C1C=CC(=O)O1 (tested in a mixture with another compound)
- T/C (dose: 50.0 mg/kg/injection, schedule: Q04DX003 (ip), vehicle: saline): 137 % of control
- T/C [9]: 126 % of control
- T/C [3]: 138 % of control
- T/C (dose: 400.0 mg/kg/injection, schedule: Q04DX003 (ip), vehicle: saline): 128 and 136 % of control [8 of 10 alive]
- survivor count (dose: 800.0 mg/kg/injection, schedule: Q04DX003 (ip), vehicle: saline): 8 of 10

SMILES: N=c1nc2n(cc1F)[C@@H]1O[C@H](CO)[C@@H](O)[C@@H]1O2
- T/C [10]: 131 % of control
- survivor count (dose: 800.0 mg/kg/injection, schedule: Q01DX009 (ip), vehicle: Klucel (hydroxypropylcellulose) (HPC)): 9 of 10
- survivor count (dose: 800.0 mg/kg/injection, schedule: Q01DX009 (ip), vehicle: saline): 9 of 10 and 10 of 10

SMILES: COCCOC(=O)Cc1ccc(OC)c(OC)c1
- survivor count [9]: 9 of 10
- survivor count [3]: 8 of 10

SMILES: C=CCOCC1CO1 (stereo not drawn)
- survivor count [10]: 0 of 10 and 4 of 10

SMILES: Cc1c2cc[n+](CCN3CCCCC3)cc2c(C)c2c1[nH]c1ccc(O)cc12
- T/C (dose: 1.56 mg/kg/injection, schedule: Q01DX009 (ip), vehicle: suspension in saline): 136 % of control
- T/C (dose: 3.12 mg/kg/injection, schedule: Q01DX009 (ip), vehicle: suspension in saline): 141 % of control
- T/C [11]: 140 % of control
- T/C (dose: 12.5 mg/kg/injection, schedule: Q01DX009 (ip), vehicle: saline): 138 and 146 % of control
- survivor count (dose: 25.0 mg/kg/injection, schedule: Q01DX009 (ip), vehicle: suspension in saline): 10 of 10
- survivor count [12]: 8 of 8
- survivor count (dose: 50.0 mg/kg/injection, schedule: Q01DX009 (ip), vehicle: suspension in saline): 10 of 10

SMILES: O=C1C(O)=C(c2ccccc2)C(=O)C(O)=C1c1ccccc1
- survivor count [9]: 4 of 10 and 6 of 10

SMILES: C=C1C(=O)OC2CC(C)C3C4OC4C(O)C3(C)C(O)C12 (stereo not drawn)
- survivor count [11]: 6 of 10

SMILES: Nc1ncnc2c1ncn2C1C=C(CO)C(O)C1O (stereo not drawn)
- survivor count (dose: 8.0 mg/kg/injection, schedule: Q01DX009 (ip), vehicle: saline): 6 of 10 and 9 of 10
- survivor count (dose: 16.0 mg/kg/injection, schedule: Q01DX009 (ip), vehicle: saline): 0 of 10 and 3 of 10

SMILES: C=C1[C@@H](O)[C@]2(O)OC[C@@]34[C@H]1[C@@H](OC(=O)C(C)CC)C(=O)O[C@@H]3C[C@H]1C(C)=CC(=O)[C@@H](O)[C@]1(C)[C@@H]24 (stereo partly drawn)
- T/C (dose: 0.5 mg/kg/injection, schedule: Q01DX009 (ip), vehicle: saline with Tween-80): 146 % of control

SMILES: COc1ccc(C(Cn2ccnc2)Sc2ccc(Cl)c(Cl)c2)cc1 (stereo not drawn)
- survivor count [4]: 8 of 10 and 8 of 8
- survivor count [13]: 5 of 10 and 9 of 10
- survivor count [1]: 0 of 10 and 5 of 10

SMILES: CN1CCN(c2ccc3nc(-c4ccc5nc(-c6ccc(O)cc6)[nH]c5c4)[nH]c3c2)CC1
- survivor count [12]: 10 of 10
- survivor count [9]: 10 of 10
- survivor count [3]: 9 of 9

SMILES: COc1cc([C@@H]2c3cc4c(cc3[C@@H](OC3OC5CO[C@@H](c6cccs6)OC5C(O)C3O)[C@H]3COC(=O)[C@H]23)OCO4)cc(OC)c1O (stereo partly drawn)
- T/C (dose: 2.0 mg/kg/injection, schedule: Q01DX009 (ip), vehicle: saline): 129 % of control

SMILES: CC(C)(C)OC(=O)NCC(=O)ON1C(=O)CCC1=O
- survivor count [1]: 10 of 10

SMILES: O=C(O)CCCCCCCC(=O)O
- survivor count (dose: 200.0 mg/kg/injection, schedule: Q01DX009 (ip), vehicle: distilled water + Tween-80): 10 of 10
- survivor count (dose: 400.0 mg/kg/injection, schedule: Q01DX009 (ip), vehicle: distilled water + Tween-80): 1 of 10

SMILES: COCC(CN1CCN(c2ccccc2OC)CC1)OC (stereo not drawn)
- survivor count [13]: 4 of 10
- survivor count [1]: 1 of 10
- survivor count [2]: 0 of 10

SMILES: C=C[Si]12OCCN(CCO1)CCO2
- survivor count [5]: 9 of 9
- survivor count (dose: 400.0 mg/kg/injection, schedule: Q01DX009 (ip), vehicle: Klucel (hydroxypropylcellulose) (HPC)): 9 of 10 and 10 of 10

SMILES: CC(O)C(NC(=O)OC(C)(C)C)C(=O)O (stereo not drawn)
- survivor count [3]: 10 of 10

SMILES: Nc1c(/C=C/c2cc3cc(C4=NCCN4)ccc3o2)[nH]c2cc(C3=NCCN3)ccc12
- survivor count [5]: 4 of 10
- survivor count [6]: 6 of 10
- survivor count [7]: 0 of 10
